# According to the supplement of paper PMC8728848:
# The other results are listed elsewhere or left out.
# B1: CALR truncated at D342 (Homo sapiens) (protein)
# chain: EPAVYFKEQFLDGDGWTSRWIESKHKSDFGKFVLSSGKFYGDEEKDKGLQTSQDARFYALSASFEPFSNKGQTLVVQFTVKHEQNIDCGGGYVKLFPNSLDQTDMHGDSEYNIMFGPDICGPGTKKVHVIFNYKGKNVLINKDIRCKDDEFTHLYTLIVRPDNTYEVKIDNSQVESGSLEDDWDFLPPKKIKDPDASKPEDWDERAKIDDPTDSKPEDWDKPEHIPDPDAKKPEDWDEEMDGEWEPPVIQNPEYKGEWKPRQIDNPDYKGTWIHPEIDNPEYSPDPSIYAYDNFGVLGLDLWQVKSGTIFDNFLITNDEAYAEEFGNETWGVTKAAEKQMKD
# What was measured:
# Experiment in all cases: glycan array binding signal (z-score within array); higher = stronger binding
# Conditions in all cases: glycan notation: IUPAC condensed, linker removed
# Gal(a1-3)Gal(b1-3)GlcNAc = biological target: Gal(a1-3)Gal(b1-3)GlcNAc
# Method in brief: (§1)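 From the Consortium for Functional Glycomics database, 3228 arrays were curated, keeping only those whose protein sequence was available. Binding is given as a within-array Z-score averaged across arrays sharing a protein sequence and across linkers. Negative Z-scores can be read as non-binding.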
# [1] = biological target: Gal(a1-3)Gal(b1-3)GlcNAc(b1-2)Man(a1-3)[Gal(a1-3)Gal(b1-3)GlcNAc(b1-2)Man(a1-6)]Man(b1-4)GlcNAc(b1-4)GlcNAc
# Method in brief: as §1
# [2] = biological target: Gal(a1-3)Gal(b1-3)GlcNAc(b1-3)GalNAc
# Method in brief: as §1
# [3] = biological target: Gal(a1-3)Gal(b1-3)GlcNAc(b1-6)GalNAc
# Method in brief: as §1
# [4] = biological target: Gal(a1-3)Gal(b1-3)[Fuc(a1-4)]GlcNAc(b1-2)Man(a1-3)[Gal(a1-3)Gal(b1-3)[Fuc(a1-4)]GlcNAc(b1-2)Man(a1-6)]Man(b1-4)GlcNAc(b1-4)GlcNAc
# Method in brief: as §1
# Gal(a1-3)Gal(b1-4)Glc = biological target: Gal(a1-3)Gal(b1-4)Glc
# Method in brief: as §1
# Gal(a1-3)Gal(b1-4)GlcNAc = biological target: Gal(a1-3)Gal(b1-4)GlcNAc
# Method in brief: as §1
# [5] = biological target: Gal(a1-3)Gal(b1-4)GlcNAc(b1-3)GalNAc
# Method in brief: as §1
# [6] = biological target: Gal(a1-3)Gal(b1-4)GlcNAc(b1-6)GalNAc
# Method in brief: as §1
# [7] = biological target: Gal(a1-3)Gal(b1-4)[Fuc(a1-3)]GlcNAc
# Method in brief: as §1
# [8] = biological target: Gal(a1-3)Gal(b1-4)[Fuc(a1-3)]GlcNAc(b1-2)Man(a1-3)[Gal(a1-3)Gal(b1-4)[Fuc(a1-3)]GlcNAc(b1-2)Man(a1-6)]Man(b1-4)GlcNAc(b1-4)GlcNAc
# Method in brief: as §1
# Gal(a1-3)GalNAc = biological target: Gal(a1-3)GalNAc
# Method in brief: as §1
# [9] = biological target: Gal(a1-3)[Gal(a1-4)]Gal(b1-4)GlcNAc
# Method in brief: as §1
# [10] = biological target: Gal(a1-4)Gal(b1-3)GlcNAc(b1-2)Man(a1-3)[Gal(a1-4)Gal(b1-3)GlcNAc(b1-2)Man(a1-6)]Man(b1-4)GlcNAc(b1-4)GlcNAc
# Method in brief: as §1
# Gal(a1-4)Gal(b1-4)Glc = biological target: Gal(a1-4)Gal(b1-4)Glc
# Method in brief: as §1
# Gal(a1-4)Gal(b1-4)GlcNAc = biological target: Gal(a1-4)Gal(b1-4)GlcNAc
# Method in brief: as §1
# [11] = biological target: Gal(a1-4)Gal(b1-4)GlcNAc(b1-2)Man(a1-3)[Gal(a1-4)Gal(b1-4)GlcNAc(b1-2)Man(a1-6)]Man(b1-4)GlcNAc(b1-4)GlcNAc
# Method in brief: as §1
# [12] = biological target: Gal(a1-4)Gal(b1-4)GlcNAc(b1-3)Gal(b1-4)Glc
# Method in brief: as §1
# Gal(a1-4)GlcNAc = biological target: Gal(a1-4)GlcNAc
# Method in brief: as §1
# Gal(a1-6)Glc = biological target: Gal(a1-6)Glc
# Method in brief: as §1
# Gal(b1-2)Gal = biological target: Gal(b1-2)Gal
# Method in brief: as §1
# Gal(b1-3)Gal = biological target: Gal(b1-3)Gal
# Method in brief: as §1
# Gal(b1-3)Gal(b1-4)GlcNAc = biological target: Gal(b1-3)Gal(b1-4)GlcNAc
# Method in brief: as §1
# [13] = biological target: Gal(b1-3)Gal(b1-4)GlcNAc(b1-2)Man(a1-3)[Gal(b1-3)Gal(b1-4)GlcNAc(b1-2)Man(a1-6)]Man(b1-4)GlcNAc(b1-4)GlcNAc
# Method in brief: as §1
# Gal(b1-3)GalNAc = biological target: Gal(b1-3)GalNAc
# Method in brief: as §1
# [14] = biological target: Gal(b1-3)GalNAc(a1-3)[Fuc(a1-2)]Gal(b1-4)Glc
# Method in brief: as §1
# [15] = biological target: Gal(b1-3)GalNAc(a1-3)[Fuc(a1-2)]Gal(b1-4)GlcNAc
# Method in brief: as §1
# [16] = biological target: Gal(b1-3)GalNAc(b1-3)Gal(a1-4)Gal(b1-4)Glc
# Method in brief: as §1
# [17] = biological target: Gal(b1-3)GalNAc(b1-4)Gal(b1-4)Glc
# Method in brief: as §1
# [18] = biological target: Gal(b1-3)GalNAc(b1-4)[Neu5Ac(a2-3)]Gal(b1-4)Glc
# Method in brief: as §1
# Gal(b1-3)GlcNAc = biological target: Gal(b1-3)GlcNAc
# Method in brief: as §1
# [19] = biological target: Gal(b1-3)GlcNAc(a1-3)Gal(b1-4)GlcNAc
# Method in brief: as §1
# [20] = biological target: Gal(b1-3)GlcNAc(a1-6)Gal(b1-4)GlcNAc
# Method in brief: as §1
# [21] = biological target: Gal(b1-3)GlcNAc(b1-2)Man(a1-3)[Gal(b1-3)GlcNAc(b1-2)Man(a1-6)]Man(b1-4)GlcNAc(b1-4)GlcNAc
# Method in brief: as §1
# [22] = biological target: Gal(b1-3)GlcNAc(b1-2)Man(a1-3)[Gal(b1-3)GlcNAc(b1-2)Man(a1-6)]Man(b1-4)GlcNAc(b1-4)[Fuc(a1-6)]GlcNAc
# Method in brief: as §1
# [23] = biological target: Gal(b1-3)GlcNAc(b1-2)Man(a1-3)[GlcNAc(b1-4)][Gal(b1-3)GlcNAc(b1-2)Man(a1-6)]Man(b1-4)GlcNAc(b1-4)GlcNAc
# Method in brief: as §1
# [24] = biological target: Gal(b1-3)GlcNAc(b1-2)[Gal(b1-3)GlcNAc(b1-6)]Man(a1-6)[Gal(b1-3)GlcNAc(b1-2)Man(a1-3)]Man(b1-4)GlcNAc(b1-4)GlcNAc
# Method in brief: as §1
binder,measurement,setting,value
B1,glycan array binding signal (z-score),Gal(a1-3)Gal(b1-3)GlcNAc,0.508
same,glycan array binding signal (z-score),[1],0.21
same,glycan array binding signal (z-score),[2],-0.106
same,glycan array binding signal (z-score),[3],0.243
same,glycan array binding signal (z-score),[4],0.326
same,glycan array binding signal (z-score),Gal(a1-3)Gal(b1-4)Glc,-0.012
same,glycan array binding signal (z-score),Gal(a1-3)Gal(b1-4)GlcNAc,-0.398
same,glycan array binding signal (z-score),[5],1.84
same,glycan array binding signal (z-score),[6],0.18
same,glycan array binding signal (z-score),[7],-1.11
same,glycan array binding signal (z-score),[8],2.73
same,glycan array binding signal (z-score),Gal(a1-3)GalNAc,-0.982
same,glycan array binding signal (z-score),[9],0.844
same,glycan array binding signal (z-score),[10],0.526
same,glycan array binding signal (z-score),Gal(a1-4)Gal(b1-4)Glc,0.011
same,glycan array binding signal (z-score),Gal(a1-4)Gal(b1-4)GlcNAc,-0.923
same,glycan array binding signal (z-score),[11],0.225
same,glycan array binding signal (z-score),[12],-0.766
same,glycan array binding signal (z-score),Gal(a1-4)GlcNAc,4.99
same,glycan array binding signal (z-score),Gal(a1-6)Glc,-0.196
same,glycan array binding signal (z-score),Gal(b1-2)Gal,1.78
same,glycan array binding signal (z-score),Gal(b1-3)Gal,1.99
same,glycan array binding signal (z-score),Gal(b1-3)Gal(b1-4)GlcNAc,-0.638
same,glycan array binding signal (z-score),[13],0.087
same,glycan array binding signal (z-score),Gal(b1-3)GalNAc,0.014
same,glycan array binding signal (z-score),[14],0.318
same,glycan array binding signal (z-score),[15],0.837
same,glycan array binding signal (z-score),[16],-0.396
same,glycan array binding signal (z-score),[17],-0.129
same,glycan array binding signal (z-score),[18],-0.443
same,glycan array binding signal (z-score),Gal(b1-3)GlcNAc,-0.45
same,glycan array binding signal (z-score),[19],-0.141
same,glycan array binding signal (z-score),[20],0.966
same,glycan array binding signal (z-score),[21],-0.863
same,glycan array binding signal (z-score),[22],-0.178
same,glycan array binding signal (z-score),[23],-0.281
same,glycan array binding signal (z-score),[24],3.33

# Reprinted at random: 3 entries already listed, in no set order.
binder,measurement,setting,value
B1,glycan array binding signal (z-score),[5],1.84
same,glycan array binding signal (z-score),Gal(a1-6)Glc,-0.196
same,glycan array binding signal (z-score),[18],-0.443
